Measurements as given in PMC5356604.
These are yes or no findings as the source states them, for the method shown. In cells and extracts the contact can be indirect. Some results given as binding are weak or reduced against the parent protein; the word gives no strength. For part of these data: Sequences can lack the tags named with a protein. Each block holds one molecule with its values, some of them ahead of it.

Protein sequences, listed by entry. Tags and fused reporters are not part of them.
UniProt P08151: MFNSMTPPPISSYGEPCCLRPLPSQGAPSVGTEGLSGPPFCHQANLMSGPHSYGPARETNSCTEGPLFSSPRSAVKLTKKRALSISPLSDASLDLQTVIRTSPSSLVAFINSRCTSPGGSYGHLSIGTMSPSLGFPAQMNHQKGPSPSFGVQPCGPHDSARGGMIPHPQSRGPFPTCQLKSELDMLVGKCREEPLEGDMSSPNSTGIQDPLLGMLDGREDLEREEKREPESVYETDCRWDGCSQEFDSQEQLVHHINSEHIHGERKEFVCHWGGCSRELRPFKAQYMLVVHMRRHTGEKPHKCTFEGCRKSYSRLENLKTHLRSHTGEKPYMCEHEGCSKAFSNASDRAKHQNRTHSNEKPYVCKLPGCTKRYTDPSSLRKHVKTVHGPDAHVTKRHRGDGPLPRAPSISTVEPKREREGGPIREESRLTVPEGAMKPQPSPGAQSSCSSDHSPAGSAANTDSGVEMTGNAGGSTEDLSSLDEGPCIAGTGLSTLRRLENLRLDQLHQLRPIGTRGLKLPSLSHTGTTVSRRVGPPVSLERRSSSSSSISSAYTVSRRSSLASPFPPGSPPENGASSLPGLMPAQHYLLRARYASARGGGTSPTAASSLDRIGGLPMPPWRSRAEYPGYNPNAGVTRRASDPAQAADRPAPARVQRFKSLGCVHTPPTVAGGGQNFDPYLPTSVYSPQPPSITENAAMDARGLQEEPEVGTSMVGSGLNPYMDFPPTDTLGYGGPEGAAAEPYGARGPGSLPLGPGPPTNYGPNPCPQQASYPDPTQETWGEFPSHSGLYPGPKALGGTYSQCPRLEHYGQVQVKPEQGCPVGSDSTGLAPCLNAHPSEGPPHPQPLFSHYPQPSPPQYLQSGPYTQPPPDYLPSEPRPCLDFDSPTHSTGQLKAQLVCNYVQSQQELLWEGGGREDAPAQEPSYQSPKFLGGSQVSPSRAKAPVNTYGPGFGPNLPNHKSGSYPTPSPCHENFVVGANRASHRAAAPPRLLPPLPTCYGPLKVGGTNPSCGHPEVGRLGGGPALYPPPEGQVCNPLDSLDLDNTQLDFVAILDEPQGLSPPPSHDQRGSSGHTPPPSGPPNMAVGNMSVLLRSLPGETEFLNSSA

What was measured:
GST-WW45 fusion protein = biological target: T1, GST-WW45 fusion protein (UniProt Q9H4B6); experiment: pull-down; 5 ug GST-WW45 with 800 ug A549 whole cell lysate (50mM Tris-Cl pH7.5, 150mM NaCl, 0.1% NP40), 4°C for 3 hours; captured on glutathione-Sepharose-4B beads; only the target purified
T1 sequence: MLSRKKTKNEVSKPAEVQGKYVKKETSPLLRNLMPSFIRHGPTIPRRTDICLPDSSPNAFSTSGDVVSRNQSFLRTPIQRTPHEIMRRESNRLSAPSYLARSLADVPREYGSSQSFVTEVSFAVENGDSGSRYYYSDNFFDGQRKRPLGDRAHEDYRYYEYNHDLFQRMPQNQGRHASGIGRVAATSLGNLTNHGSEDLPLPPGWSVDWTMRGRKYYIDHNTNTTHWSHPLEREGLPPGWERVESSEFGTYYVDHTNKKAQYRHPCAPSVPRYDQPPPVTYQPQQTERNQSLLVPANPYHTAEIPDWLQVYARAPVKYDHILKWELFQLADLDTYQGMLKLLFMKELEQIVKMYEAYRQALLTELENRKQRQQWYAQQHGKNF

[1] = biological target: HA-tagged Gli1 (expressed in A549 cells) (UniProt P08151); experiment: co-IP; ectopically expressed Flag-WW45 and HA-Gli1 in A549 cells; which protein was precipitated is not told
[2] = biological target: Gli1 (endogenous, A549 cells) (human (endogenous in A549)) (UniProt P08151); experiment: co-IP; endogenous WW45 and Gli1 in A549 cells; which protein was precipitated is not told

binding (GST-WW45 fusion protein): binds
Molecule: Gli1 (endogenous, A549 cells) (from UniProt P08151 1-1106)

binding [1]: binds
B1: Flag tagged WW45 (protein, UniProt Q9H4B6 1-383)
chain: MLSRKKTKNEVSKPAEVQGKYVKKETSPLLRNLMPSFIRHGPTIPRRTDICLPDSSPNAFSTSGDVVSRNQSFLRTPIQRTPHEIMRRESNRLSAPSYLARSLADVPREYGSSQSFVTEVSFAVENGDSGSRYYYSDNFFDGQRKRPLGDRAHEDYRYYEYNHDLFQRMPQNQGRHASGIGRVAATSLGNLTNHGSEDLPLPPGWSVDWTMRGRKYYIDHNTNTTHWSHPLEREGLPPGWERVESSEFGTYYVDHTNKKAQYRHPCAPSVPRYDQPPPVTYQPQQTERNQSLLVPANPYHTAEIPDWLQVYARAPVKYDHILKWELFQLADLDTYQGMLKLLFMKELEQIVKMYEAYRQALLTELENRKQRQQWYAQQHGKNF

binding [2]: binds
B2: WW45 (endogenous, A549 cells) (protein, UniProt Q9H4B6 1-383)
chain: MLSRKKTKNEVSKPAEVQGKYVKKETSPLLRNLMPSFIRHGPTIPRRTDICLPDSSPNAFSTSGDVVSRNQSFLRTPIQRTPHEIMRRESNRLSAPSYLARSLADVPREYGSSQSFVTEVSFAVENGDSGSRYYYSDNFFDGQRKRPLGDRAHEDYRYYEYNHDLFQRMPQNQGRHASGIGRVAATSLGNLTNHGSEDLPLPPGWSVDWTMRGRKYYIDHNTNTTHWSHPLEREGLPPGWERVESSEFGTYYVDHTNKKAQYRHPCAPSVPRYDQPPPVTYQPQQTERNQSLLVPANPYHTAEIPDWLQVYARAPVKYDHILKWELFQLADLDTYQGMLKLLFMKELEQIVKMYEAYRQALLTELENRKQRQQWYAQQHGKNF
